Reference: patent US6506772B1, “Substituted [1,2,4]triazolo[1,5a]pyridine derivatives with activity as adenosine receptor ligands” (Hoffmann-La Roche Inc., priority 2000, dated 2003)
The structures given here were assigned with low confidence; some may be wrong.

The chains behind the UniProt entries cited, without tags or fusion partners.
UniProt P30542, whole entry: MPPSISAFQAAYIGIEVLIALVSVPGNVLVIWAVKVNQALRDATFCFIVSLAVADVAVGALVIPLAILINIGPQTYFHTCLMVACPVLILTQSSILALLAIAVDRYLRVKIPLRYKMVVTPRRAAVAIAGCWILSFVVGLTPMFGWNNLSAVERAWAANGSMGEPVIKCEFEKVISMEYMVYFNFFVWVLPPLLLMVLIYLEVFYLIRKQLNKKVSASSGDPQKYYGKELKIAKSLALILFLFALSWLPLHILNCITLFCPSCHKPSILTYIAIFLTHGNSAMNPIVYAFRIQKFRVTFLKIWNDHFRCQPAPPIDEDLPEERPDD

Columns and labels:
[1] = target: human adenosine A2A receptor (Homo sapiens, UniProt P29274); test: Human adenosine A2A receptor [3H]-SCH-58261 binding assay; conditions: for selectivity (A1/A2a): calculated ratio of the affinity to the HA1 receptor to the HA2a receptor; for Ki: read-out: Ki HA2A, affinity to human adenosine A2A receptor
HA1 adenosine receptor = HA1 adenosine receptor (Homo sapiens, UniProt P30542); test: Human adenosine A1 receptor affinity (Ki hA1); format: binding; conditions: read-out: Ki HA1; affinity to human adenosine A1 receptor

Compound | selectivity (A1/A2a) [1] | Ki [1] | Ki (HA1 adenosine receptor)
CCN(C)C(=O)c1cc(N)n2nc(-c3nccs3)nc2c1 | 38.6 | 157 nM | 6060 nM
Nc1cc(C(=O)NCc2ccccc2Br)cc2nc(-c3ccc(Cl)o3)nn12 | 2.7 | 26.5 nM | 70.6 nM
Nc1cc(C(=O)NCc2ccccc2Cl)cc2nc(-c3ccc(Cl)o3)nn12 | 2.5 | 35.8 nM | 91.2 nM
